The text below walks through data of article PMC10719266.

The chains behind the UniProt entries cited, without tags or fusion partners.
UniProt P19474: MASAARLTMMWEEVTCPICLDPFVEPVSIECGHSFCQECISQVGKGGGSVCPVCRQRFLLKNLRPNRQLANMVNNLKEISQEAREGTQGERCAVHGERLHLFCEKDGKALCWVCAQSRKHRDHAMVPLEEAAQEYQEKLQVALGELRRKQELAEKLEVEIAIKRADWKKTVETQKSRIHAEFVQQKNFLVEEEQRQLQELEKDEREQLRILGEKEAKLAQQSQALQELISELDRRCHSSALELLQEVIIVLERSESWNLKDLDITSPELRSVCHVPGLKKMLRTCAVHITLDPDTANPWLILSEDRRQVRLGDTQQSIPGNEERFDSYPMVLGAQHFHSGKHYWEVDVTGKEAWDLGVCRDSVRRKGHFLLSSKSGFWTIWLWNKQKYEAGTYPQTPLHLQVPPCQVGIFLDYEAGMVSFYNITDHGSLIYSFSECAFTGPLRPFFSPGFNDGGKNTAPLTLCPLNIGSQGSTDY

Results are given in words; binding and its absence hold for the method and conditions named. Binding seen in cells or lysates may run through a third protein. A yes stands for co-enrichment or nearness to the bait. Other partners may have been found. Sequences can lack the tags named with a protein.

This test deals with T1, Flag-tagged FOXD1 (human) (UniProt Q16676).
T1 sequence: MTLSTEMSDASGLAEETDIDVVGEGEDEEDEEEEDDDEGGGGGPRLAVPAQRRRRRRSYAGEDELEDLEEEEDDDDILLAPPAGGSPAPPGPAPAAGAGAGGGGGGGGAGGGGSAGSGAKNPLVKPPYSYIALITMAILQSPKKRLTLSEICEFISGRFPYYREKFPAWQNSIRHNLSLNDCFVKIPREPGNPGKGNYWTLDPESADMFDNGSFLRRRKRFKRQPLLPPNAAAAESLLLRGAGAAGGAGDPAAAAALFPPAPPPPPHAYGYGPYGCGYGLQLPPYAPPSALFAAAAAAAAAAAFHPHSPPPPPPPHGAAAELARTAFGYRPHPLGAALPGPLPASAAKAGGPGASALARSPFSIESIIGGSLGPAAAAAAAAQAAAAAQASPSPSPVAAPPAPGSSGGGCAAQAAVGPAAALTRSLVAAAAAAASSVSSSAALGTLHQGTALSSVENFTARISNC
Put plainly: affinity purification with mass spectrometry; Flag-tagged FOXD1 expressed in HEK293T cells in the presence of ubiquitin; immunoprecipitation, then nano-LC-MS/MS (LTQ-Orbitrap Velos).

Consider TRIM21 (from UniProt P19474 1-475), for which the binding entry was “binds”.
